Test results from PMC10090139.
These are yes or no findings as the source states them, for the method shown. In cells and extracts the contact can be indirect. Some binding calls cover weakened binding; strength is not graded here. Sequences can lack the tags named with a protein.

Amino acid sequences for entries named in this document (tags omitted). Residues count along the entry.
UniProt P62993: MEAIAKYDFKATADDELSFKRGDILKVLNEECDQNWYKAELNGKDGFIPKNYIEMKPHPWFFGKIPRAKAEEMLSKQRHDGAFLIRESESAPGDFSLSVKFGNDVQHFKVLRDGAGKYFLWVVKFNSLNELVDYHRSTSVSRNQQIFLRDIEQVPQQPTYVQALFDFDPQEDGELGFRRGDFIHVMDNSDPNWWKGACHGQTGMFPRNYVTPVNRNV
UniProt P10721, residues 26-976: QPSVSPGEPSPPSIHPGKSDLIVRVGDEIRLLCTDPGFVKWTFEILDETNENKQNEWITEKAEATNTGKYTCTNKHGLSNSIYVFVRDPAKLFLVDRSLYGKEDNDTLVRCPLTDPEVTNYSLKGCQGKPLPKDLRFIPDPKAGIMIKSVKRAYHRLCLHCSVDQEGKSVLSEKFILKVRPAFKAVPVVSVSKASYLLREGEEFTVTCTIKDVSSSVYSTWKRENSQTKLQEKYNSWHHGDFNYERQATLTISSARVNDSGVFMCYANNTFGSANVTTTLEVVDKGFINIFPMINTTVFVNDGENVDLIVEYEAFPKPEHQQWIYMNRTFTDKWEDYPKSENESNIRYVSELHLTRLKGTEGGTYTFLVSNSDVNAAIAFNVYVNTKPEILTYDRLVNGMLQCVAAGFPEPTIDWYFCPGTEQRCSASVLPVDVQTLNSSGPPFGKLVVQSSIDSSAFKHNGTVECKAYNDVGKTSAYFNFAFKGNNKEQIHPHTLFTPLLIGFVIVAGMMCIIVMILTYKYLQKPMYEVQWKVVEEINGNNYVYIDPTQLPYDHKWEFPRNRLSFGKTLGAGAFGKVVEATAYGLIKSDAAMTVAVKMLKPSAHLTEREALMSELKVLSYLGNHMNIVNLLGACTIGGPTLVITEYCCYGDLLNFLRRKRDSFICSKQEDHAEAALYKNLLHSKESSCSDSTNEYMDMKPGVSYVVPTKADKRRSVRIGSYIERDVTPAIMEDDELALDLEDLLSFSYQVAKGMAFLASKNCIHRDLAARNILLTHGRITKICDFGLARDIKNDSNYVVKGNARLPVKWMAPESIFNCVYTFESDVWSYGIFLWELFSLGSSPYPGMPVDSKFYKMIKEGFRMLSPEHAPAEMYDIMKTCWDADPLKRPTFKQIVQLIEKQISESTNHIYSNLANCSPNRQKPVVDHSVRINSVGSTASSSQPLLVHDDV
UniProt P05532, residues 25-979: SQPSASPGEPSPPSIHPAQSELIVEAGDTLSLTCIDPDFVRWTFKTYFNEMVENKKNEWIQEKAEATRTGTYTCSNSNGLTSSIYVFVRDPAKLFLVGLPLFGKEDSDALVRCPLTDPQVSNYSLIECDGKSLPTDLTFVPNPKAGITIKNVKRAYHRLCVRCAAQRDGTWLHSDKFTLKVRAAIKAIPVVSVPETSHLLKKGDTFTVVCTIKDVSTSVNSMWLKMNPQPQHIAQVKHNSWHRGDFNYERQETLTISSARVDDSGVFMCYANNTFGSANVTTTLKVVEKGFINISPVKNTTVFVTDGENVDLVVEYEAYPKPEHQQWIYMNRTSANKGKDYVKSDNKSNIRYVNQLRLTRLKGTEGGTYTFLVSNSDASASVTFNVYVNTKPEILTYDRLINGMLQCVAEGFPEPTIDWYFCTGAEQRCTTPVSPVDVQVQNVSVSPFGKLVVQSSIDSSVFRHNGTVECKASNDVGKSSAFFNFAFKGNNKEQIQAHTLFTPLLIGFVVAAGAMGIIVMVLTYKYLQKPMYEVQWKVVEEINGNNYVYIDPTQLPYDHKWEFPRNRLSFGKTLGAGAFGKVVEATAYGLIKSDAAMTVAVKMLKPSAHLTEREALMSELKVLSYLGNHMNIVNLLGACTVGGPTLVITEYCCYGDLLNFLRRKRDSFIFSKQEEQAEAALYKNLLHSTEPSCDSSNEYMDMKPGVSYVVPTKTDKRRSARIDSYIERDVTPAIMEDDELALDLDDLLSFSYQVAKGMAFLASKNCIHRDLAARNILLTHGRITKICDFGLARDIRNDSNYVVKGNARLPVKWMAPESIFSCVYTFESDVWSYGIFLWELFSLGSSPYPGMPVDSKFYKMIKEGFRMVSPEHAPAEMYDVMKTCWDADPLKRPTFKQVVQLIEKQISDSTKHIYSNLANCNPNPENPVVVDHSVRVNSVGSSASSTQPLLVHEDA

What was measured:
[1] = target: T1, wild-type MCEMP1 with carboxyl-terminal Flag, stably expressed in HMC-1 human mast cells (not stated (human or mouse cDNA cloned)) (UniProt Q8IX19); assay: co-IP; C57 or HMC-1 cells stably expressing MCEMP1-Flag (with or without αFlag for 1 min); lysates immunoprecipitated with anti-Flag antibody; immunoblot
T1 sequence (chain, tyrosine-phosphorylated after αFlag stimulation): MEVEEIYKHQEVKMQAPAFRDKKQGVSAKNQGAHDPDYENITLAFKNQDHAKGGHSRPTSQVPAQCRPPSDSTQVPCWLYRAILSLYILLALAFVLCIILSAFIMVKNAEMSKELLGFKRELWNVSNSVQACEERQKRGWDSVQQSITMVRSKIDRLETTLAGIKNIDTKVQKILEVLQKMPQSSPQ

[2] = target: T2, human MCEMP1 with carboxy-terminal Flag, expressed in 293T cells (human) (UniProt Q8IX19); assay: co-IP; 293T cells transfected; 1% Triton X-100, 50 mM Tris-HCl pH 8.0, 150 mM NaCl; M2 beads or HA beads, 4 °C, 1-2 h; washes with 150~400 mM NaCl; immunoblot
T2 sequence: T1 sequence (chain, tyrosine-phosphorylated after αFlag stimulation)

[3] = target: T3, mouse MCEMP1 with carboxy-terminal Flag, expressed in 293T cells (mouse) (UniProt Q9D8U6); assay: as above
T3 sequence: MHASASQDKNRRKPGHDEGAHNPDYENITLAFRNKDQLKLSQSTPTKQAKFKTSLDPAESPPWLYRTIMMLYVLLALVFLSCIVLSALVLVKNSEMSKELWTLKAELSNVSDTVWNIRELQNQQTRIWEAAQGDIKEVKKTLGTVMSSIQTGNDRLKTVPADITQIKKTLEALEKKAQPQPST

| binding [1] | binding [2] | binding [3] | Substance |
| --- | --- | --- | --- |
| binds | – | – | growth factor receptor-bound protein 2 (Grb2), endogenous, human cells (from UniProt P62993 1-217) |
| – | binds | – | human KIT with carboxy-terminal HA or V5 epitope, expressed in 293T cells (from UniProt P10721 26-976) (receptor) |
| – | binds | binds | mouse KIT with carboxy-terminal HA or V5 epitope, expressed in 293T cells (from UniProt P05532 25-979) (receptor) |
